Experimental data taken from doi:10.1101/2021.12.13.472398.
Results are given in words; binding and its absence hold for the method and conditions named. In cells and extracts the contact can be indirect. Here binding means that the protein was enriched with, or labelled near, the bait; the list need not be complete.

Sequences of proteins named here, by UniProt entry; tags and fusion partners are left off.
UniProt P06537: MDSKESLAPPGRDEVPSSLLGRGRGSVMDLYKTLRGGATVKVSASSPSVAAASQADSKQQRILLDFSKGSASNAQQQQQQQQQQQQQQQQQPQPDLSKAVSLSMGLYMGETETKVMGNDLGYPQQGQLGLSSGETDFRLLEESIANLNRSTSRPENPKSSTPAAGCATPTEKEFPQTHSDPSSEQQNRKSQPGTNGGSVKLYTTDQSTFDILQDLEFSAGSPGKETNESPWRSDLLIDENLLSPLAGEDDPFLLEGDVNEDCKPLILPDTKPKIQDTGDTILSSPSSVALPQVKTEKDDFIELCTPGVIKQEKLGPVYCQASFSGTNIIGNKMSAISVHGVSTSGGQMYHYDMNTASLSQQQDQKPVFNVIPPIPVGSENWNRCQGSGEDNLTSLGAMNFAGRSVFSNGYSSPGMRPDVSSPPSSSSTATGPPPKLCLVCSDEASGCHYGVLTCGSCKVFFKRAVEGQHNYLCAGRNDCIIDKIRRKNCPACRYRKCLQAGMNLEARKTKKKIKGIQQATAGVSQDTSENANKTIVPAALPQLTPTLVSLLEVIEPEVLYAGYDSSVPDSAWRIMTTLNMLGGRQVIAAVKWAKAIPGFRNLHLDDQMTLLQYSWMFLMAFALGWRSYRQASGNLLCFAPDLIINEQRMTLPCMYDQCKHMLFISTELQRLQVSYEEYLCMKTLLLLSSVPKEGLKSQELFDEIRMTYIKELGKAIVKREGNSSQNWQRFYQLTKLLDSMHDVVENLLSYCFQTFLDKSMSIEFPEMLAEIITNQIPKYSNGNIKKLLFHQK
UniProt Q99JR8: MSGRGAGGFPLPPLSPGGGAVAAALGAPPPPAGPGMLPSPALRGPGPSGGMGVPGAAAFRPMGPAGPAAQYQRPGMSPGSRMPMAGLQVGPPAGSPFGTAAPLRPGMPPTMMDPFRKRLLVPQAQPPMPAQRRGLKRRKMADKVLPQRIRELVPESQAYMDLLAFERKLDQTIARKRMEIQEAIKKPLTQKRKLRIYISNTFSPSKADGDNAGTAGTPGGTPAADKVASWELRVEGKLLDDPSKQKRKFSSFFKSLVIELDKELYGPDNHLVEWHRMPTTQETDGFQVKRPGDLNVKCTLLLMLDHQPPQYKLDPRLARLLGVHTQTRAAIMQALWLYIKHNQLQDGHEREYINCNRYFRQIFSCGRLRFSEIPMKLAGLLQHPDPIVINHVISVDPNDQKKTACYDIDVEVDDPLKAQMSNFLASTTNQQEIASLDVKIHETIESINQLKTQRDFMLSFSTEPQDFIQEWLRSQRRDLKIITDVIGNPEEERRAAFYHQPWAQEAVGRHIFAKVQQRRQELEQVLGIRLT
UniProt O54941: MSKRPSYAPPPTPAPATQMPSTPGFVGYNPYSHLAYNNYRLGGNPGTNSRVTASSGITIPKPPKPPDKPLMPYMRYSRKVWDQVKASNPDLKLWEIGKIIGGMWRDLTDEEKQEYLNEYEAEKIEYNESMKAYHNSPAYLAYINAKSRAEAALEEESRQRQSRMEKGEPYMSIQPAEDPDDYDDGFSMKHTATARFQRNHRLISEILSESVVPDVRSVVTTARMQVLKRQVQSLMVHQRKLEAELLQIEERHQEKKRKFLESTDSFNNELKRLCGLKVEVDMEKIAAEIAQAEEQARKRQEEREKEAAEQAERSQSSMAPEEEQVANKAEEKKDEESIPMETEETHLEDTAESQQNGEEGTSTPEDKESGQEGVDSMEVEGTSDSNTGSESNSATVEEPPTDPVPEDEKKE
UniProt A2BH40: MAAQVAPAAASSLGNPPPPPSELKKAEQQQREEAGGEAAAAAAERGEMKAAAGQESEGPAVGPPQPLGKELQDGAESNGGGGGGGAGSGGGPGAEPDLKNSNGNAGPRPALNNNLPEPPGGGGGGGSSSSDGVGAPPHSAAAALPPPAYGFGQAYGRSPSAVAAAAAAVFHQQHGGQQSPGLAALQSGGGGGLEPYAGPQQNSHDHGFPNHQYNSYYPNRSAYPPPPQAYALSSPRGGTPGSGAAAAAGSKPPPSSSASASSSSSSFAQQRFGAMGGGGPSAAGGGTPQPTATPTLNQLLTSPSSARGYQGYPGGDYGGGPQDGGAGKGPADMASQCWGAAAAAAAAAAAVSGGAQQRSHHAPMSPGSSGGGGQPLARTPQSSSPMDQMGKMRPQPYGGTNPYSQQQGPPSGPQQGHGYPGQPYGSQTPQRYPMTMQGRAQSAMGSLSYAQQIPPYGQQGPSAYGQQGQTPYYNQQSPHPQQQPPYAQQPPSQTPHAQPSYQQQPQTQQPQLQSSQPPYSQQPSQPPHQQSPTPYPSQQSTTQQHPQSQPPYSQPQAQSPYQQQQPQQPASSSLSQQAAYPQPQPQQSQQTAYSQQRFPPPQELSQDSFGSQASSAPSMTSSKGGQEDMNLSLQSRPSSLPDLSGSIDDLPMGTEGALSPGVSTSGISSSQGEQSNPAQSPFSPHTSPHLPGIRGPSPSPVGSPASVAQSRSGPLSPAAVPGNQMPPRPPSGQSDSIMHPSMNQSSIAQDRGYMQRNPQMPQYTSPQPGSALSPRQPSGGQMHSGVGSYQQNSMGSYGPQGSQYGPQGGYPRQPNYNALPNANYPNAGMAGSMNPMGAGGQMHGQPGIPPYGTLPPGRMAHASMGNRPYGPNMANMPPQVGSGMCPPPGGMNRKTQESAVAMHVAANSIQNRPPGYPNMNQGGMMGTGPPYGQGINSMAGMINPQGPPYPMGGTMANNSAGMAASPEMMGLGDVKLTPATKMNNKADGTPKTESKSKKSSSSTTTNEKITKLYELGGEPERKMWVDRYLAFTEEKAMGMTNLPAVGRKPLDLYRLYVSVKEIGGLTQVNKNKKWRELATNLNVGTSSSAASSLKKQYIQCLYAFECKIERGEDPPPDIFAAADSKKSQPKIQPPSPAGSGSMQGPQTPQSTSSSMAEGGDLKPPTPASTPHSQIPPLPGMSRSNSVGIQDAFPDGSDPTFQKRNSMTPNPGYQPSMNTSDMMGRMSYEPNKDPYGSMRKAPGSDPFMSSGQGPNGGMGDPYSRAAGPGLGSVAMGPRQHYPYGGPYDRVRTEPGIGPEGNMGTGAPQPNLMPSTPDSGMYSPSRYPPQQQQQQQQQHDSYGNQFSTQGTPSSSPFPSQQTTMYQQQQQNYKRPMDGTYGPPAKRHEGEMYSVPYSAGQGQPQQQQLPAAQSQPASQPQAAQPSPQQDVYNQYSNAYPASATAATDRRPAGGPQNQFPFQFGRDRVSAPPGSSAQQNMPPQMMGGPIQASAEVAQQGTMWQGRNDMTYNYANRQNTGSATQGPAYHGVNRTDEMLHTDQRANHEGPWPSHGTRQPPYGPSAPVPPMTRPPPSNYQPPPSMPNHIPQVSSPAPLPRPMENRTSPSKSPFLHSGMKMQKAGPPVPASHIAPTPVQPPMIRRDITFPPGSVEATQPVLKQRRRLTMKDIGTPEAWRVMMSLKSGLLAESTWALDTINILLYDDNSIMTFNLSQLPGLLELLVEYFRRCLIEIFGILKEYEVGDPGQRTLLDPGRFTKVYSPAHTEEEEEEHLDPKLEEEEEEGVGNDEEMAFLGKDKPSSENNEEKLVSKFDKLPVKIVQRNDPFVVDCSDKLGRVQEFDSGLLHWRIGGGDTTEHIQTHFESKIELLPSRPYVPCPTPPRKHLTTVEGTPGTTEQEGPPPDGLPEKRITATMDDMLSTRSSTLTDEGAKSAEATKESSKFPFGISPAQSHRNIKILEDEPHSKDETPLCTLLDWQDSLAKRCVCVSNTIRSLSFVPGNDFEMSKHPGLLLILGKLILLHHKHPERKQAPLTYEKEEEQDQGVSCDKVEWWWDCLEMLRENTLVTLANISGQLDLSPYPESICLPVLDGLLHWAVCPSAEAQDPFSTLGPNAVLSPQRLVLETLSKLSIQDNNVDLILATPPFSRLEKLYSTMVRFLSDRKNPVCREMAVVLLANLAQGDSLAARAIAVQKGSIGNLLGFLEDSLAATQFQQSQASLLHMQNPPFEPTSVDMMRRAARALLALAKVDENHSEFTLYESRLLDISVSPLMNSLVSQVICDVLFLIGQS

These substances were tested against Glucocorticoid Receptor (mouse (endogenous in primary murine macrophages and RAW264.7)) (UniProt P06537) (assay: affinity purification with mass spectrometry).

binding, binds:
SMARCD2 (BAF60B) (from UniProt Q99JR8 1-531), SMARCE1 (BAF57) (from UniProt O54941 1-411), ARID1A (BAF250) (from UniProt A2BH40 1-2283)
